Measurements published in PMC11102866.
The exact form of at least one protein or probe is not confirmed. For part of these data: A weaker result is weaker than the reference pair of the same experiment. For part of these data: At least one verdict was read from the data and is not stated in words by the source.

What was measured:
[1] = system: NR5A2 wild type + histone octamer; assay: SeEN-seq (EMSA of nucleosome library followed by sequencing); details: 0.8 uM human NR5A2; reconstituted with mouse histones H2A, H2B, H3.3 and H4; 20 mM Tris-HCl pH 7.5, 120 mM NaCl, 1 mM MgCl2, 10 uM ZnCl2, 1 mM DTT, 100 ug/ml BSA, room temperature, 30 min; 0.1 uM nucleosome library; high values mean tight binding; recombinant protein; DNA in a nucleosome; counted as no binding; scale: log2 enrichment
[2] = target: NR5A2 wild type (Homo sapiens) (UniProt O00482); assay: EMSA; details: 10 uM ZnCl2, 1 mM MgCl2; EMSA: 20 mM Tris-HCl pH 7.5, 120 mM NaCl, 1 mM MgCl2, 10 uM ZnCl2, 1 mM DTT, 100 ug/ml BSA, room temperature, 30 min; 50 nM DNA or nucleosome; recombinant protein
[3] = target: NR5A2 R162A (Homo sapiens) (UniProt O00482); assay: EMSA; details: slightly reduced; EMSA: 20 mM Tris-HCl pH 7.5, 120 mM NaCl, 1 mM MgCl2, 10 uM ZnCl2, 1 mM DTT, 100 ug/ml BSA, room temperature, 30 min; 50 nM DNA or nucleosome; recombinant protein

Sequence	binding signal [1]	binding result [2]	binding result [3]
ATCCTGGTCAAGGCCAGTGCCGAGGCCGCTCAATTGGTCGTAGACAGCTCTAGCACCGCTTAAACGCACGTACGCGCTGTCCCCCGCGTTTTAACCGCCAAGGGGATTACTCCCTAGTCTCCAGGCACGTGTCAGATATATACATCCTGTGAT (double strand) [5]	-0.0162		
GAGAGAGTCAAGGCCATGGCTCACT (double strand) [25 bp DNA with Nr5a2 consensus motif]		binds	binds more weakly
